From PubChem BioAssay AID493014 (National Center for Advancing Translational Sciences (NCATS), 2011) come the findings set out here.

This experiment in a line: qHTS Assay to Find Inhibitors of Chronic Active B-Cell Receptor Signaling. The settings on record: ABC-DLBCL IkBa-CBG/CBR reporter, luminescence ratio (green luciferase fused to IkBa over red control in TMD8 lymphoma cells), 4 h. The procedure, abridged: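 TMD8 human ABC-DLBCL cells with doxycycline-inducible IκBα–green luciferase fusion and unfused red luciferase, in 0.5% FBS medium; compounds up to 46 uM, 4 h at 37C. Green/red luminescence ratio, filter-overlap corrected, fitted to concentration-response curves.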

The mark [1] stands for this setting: measured here: CBR red luminescence, cell number.
Where [2] appears, read: measured here: IkBa-CBG green luminescence.

The other results are listed elsewhere or left out. Further columns of the screen follow, without active or inactive calls. Most of these compounds were active or inconclusive in the main read-out, so they are no random draw. Potencies come from curve fits of mixed quality, noted in brackets.

In the case of `CSc1ncc(OCc2ccccc2)c(=O)[nH]1`, the AC50 under setting [1] was 25.1 µM [falling, single point].
On the same count and under the same terms, under `COC(=O)c1c(NC(=O)CSc2nnc(CNc3ccc(Cl)cc3)o2)sc(C)c1C` stands 32.6 µM [falling, single point]; under `CCCCCC(=O)Nc1ccc2oc(-c3cncc(Br)c3)nc2c1`, 7.08 µM [rising, partial curve, poor fit].
The same measure, in the same setting: with `O=C(NCCN1CCN(C(=O)c2c(F)cccc2F)CC1)C(=O)Nc1ccc(Cl)cc1` the figure was 15.8 µM [falling, partial curve, poor fit].
On the same count and under the same terms, with `Cc1cc2cc(CN3C(=O)c4ccccc4C3=O)ccc2[nH]1` the figure was 1.3 µM [falling, full curve]; with `C/C(=N\NC(=O)c1cccc(N/N=C(\C)c2cc(O)ccc2O)c1)c1cc(O)ccc1O`, 5.01 µM [falling, partial curve].
Take `OCCCc1nc2ccccc2n1CCc1ccccc1`: the AC50 under setting [1] is 20.6 µM [falling, partial curve].
The same measure, in the same setting: under `CCCCCC(N)=O` stands 29.1 µM [rising, single point].
With `Cc1ccc(NS(=O)(=O)c2cc(-c3n[nH]c(=O)c4ccccc34)ccc2C)cc1`, the concentration at half-maximal activity (AC50) under setting [1] was 2.91 µM [rising, single point] and the AC50 under setting [2] was 5.17 µM [falling, partial curve].
On to `COc1cc(C(=O)NC(C)c2cccc3ccccc23)cc(OC)c1OC` (stereo not drawn), for which the AC50 under setting [1] was 0.447 µM [rising, partial curve, poor fit].
On the same count and under the same terms, under `CCOP(=O)(c1ccc(N(C)C)cc1)C(O)c1ccccc1F` (stereo not drawn) stands 6.31 µM [rising, single point]; under `COCCn1c(SCC(=O)NC(=O)NC2CCCCC2)nc2ccccc2c1=O`, 9.2 µM [falling, single point]; under `CC1=CC(C)(C)n2c(O)c(N=N)c3c(C)c(C)cc1c32`, 12.6 µM [rising, partial curve].
The same measure, in the same setting: with `CC(NC(=O)Cc1ccccc1)C(=O)O` (stereo not drawn) the figure was 18.4 µM [falling, single point]; with `Cc1onc(-c2c(F)cccc2Cl)c1C(=O)Nc1c(C)n(C)n(-c2ccccc2)c1=O`, 35.5 µM [falling, single point].
With `O=C1C=C(NNC(=O)c2cccnc2)CC(c2ccco2)C1` (stereo not drawn), the concentration at half-maximal activity (AC50) under setting [1] is 35.5 µM [falling, single point].
Still for that read-out and setting: with `Cc1cc2c(C)nc(N/N=C/c3ccc(F)cc3)nc2o1` the figure was 16.4 µM [falling, single point]; with `COCCOC(=O)C1=C(C)NC(=O)NC1c1ccc(OC(=O)c2ccco2)c(OC)c1` (stereo not drawn), 29.1 µM [falling, single point].
The same measure, in the same setting: under `Cc1c(Cl)cccc1Nc1nc(N)nc(CSc2nc3ccccc3s2)n1` stands 6.51 µM [rising, partial curve, poor fit]; under `O=C(CCC(=O)N1CCSc2ccccc21)NCc1ccc(Cl)cc1`, 15.8 µM [rising, partial curve, poor fit]; under `Cc1cccc(CSc2nn3c(=O)c(C)nnc3s2)c1`, 16.4 µM [falling, single point].
On to `COc1ccc(C(=O)C=CNNC(=O)c2ccc(Cl)cc2)cc1`, for which, under setting [1], the AC50 is 7.94 µM [falling, partial curve].
On to `Cc1cc(C(=O)NN=C2CCCCCCC2)c2ccccc2n1`, for which the AC50 reads like this: under setting [1], 29.1 µM [rising, single point]; under setting [2], 29.1 µM [falling, single point].
On to `Cc1ccc(C(=O)CSc2nc(C)cc(SCc3nnc(-c4ccccc4)o3)n2)cc1`, for which the AC50 under setting [1] was 0.651 µM [falling, full curve, poor fit].
Consider `COc1ccccc1NC(=O)C(NC(=O)OC(C)(C)C)C(C)OCc1ccccc1` (stereo not drawn), for which the AC50 under setting [1] is 10 µM [falling, partial curve].
Regarding `Cc1ccc2nc(C)c(C(=O)N/N=C/c3cccc([N+](=O)[O-])c3)cc2c1`, the AC50 under setting [1] is 4.61 µM [rising, full curve, poor fit].
The same measure, in the same setting: with `Cc1ccc2oc(C(F)(F)C(F)F)cc(=O)c2c1` the figure was 35.5 µM [rising, single point].
On to `CC(=O)Nc1cccc(C(=O)Nc2ccccc2C(=O)O)c1`, for which, under setting [1], the half-maximal activity concentration (AC50) is 5.8 µM [falling, partial curve, poor fit].
Still for that read-out and setting: with `N#Cc1nc(COc2cccc(Cl)c2)oc1N1CCN(c2ccccc2)CC1` the figure was 20.6 µM [falling, single point]; with `CSc1ccccc1NC(=O)CCc1ccccc1`, 15.8 µM [falling, partial curve, poor fit]; with `O=C(CSc1nnc(-c2ccc(F)cc2)c2ccccc12)Nc1ccccc1`, 20.6 µM [falling, single point].
As for `CN(C(=O)CSc1nc(N)c2c3c(sc2n1)CSC(C)(C)C3)c1ccccc1`, the half-maximal activity concentration (AC50) under setting [1] was 25.9 µM [falling, single point].
On the same count and under the same terms, with `FC(F)(F)c1ccc(C2[C@H]3CN(Cc4ccc(-c5ccccc5)cc4)[C@H](c4ccccc4)C34CC2(c2ccccc2)C4)cc1` (stereo partly drawn) the figure was 5.62 µM [rising, single point]; with `COc1ccc2nc(NC(=O)c3ccoc3C)sc2c1`, 3.66 µM [falling, full curve].
Still for that read-out and setting: under `COc1ccc(C2c3[nH]c4ccccc4c3CCN2CCCn2cccn2)cc1C` (stereo not drawn) stands 35.5 µM [falling, single point].
Still for that read-out and setting: under `CNC(=S)N1CCN(S(=O)(=O)c2ccc3ccccc3c2)CC1` stands 4.47 µM [falling, full curve, poor fit]; under `O=C(Nc1ccc(F)cc1)c1cccc(N2C(=O)c3ccccc3C2=O)c1`, 7.94 µM [falling, partial curve, poor fit]; under `O=[N+]([O-])c1ccc2nc(-c3ccccc3[N+](=O)[O-])[nH]c2c1`, 12.6 µM [falling, partial curve, poor fit].
In the case of `O=C(CCCN1C(=O)/C(=C/c2ccccc2Cl)SC1=S)NCCCN1CCOCC1`, the AC50 under setting [1] was 12.6 µM [falling, partial curve].
The same measure, in the same setting: under `COC(=O)N1CCc2c(sc(NC(=O)C3COc4ccccc4O3)c2C(N)=O)C1` (stereo not drawn) stands 25.9 µM [falling, partial curve]; under `C/C(CC1CC(C)(C)OC1=O)=N\NC(N)=S` (stereo not drawn), 0.501 µM [rising, full curve, poor fit].
